Assay results taken from patent US8592422B2, “Bicyclic triazole and pyrazole lactams as allosteric modulators of mGluR5 receptors” (Vanderbilt University, priority 2010, dated 2013).
Structures were worked out from names or drawings and are uncertain.

Sequences of proteins named here, by UniProt entry; tags and fusion partners are left off. Residues count along the entry.
UniProt P41594, 21-1180 isoform 2 limits assumed: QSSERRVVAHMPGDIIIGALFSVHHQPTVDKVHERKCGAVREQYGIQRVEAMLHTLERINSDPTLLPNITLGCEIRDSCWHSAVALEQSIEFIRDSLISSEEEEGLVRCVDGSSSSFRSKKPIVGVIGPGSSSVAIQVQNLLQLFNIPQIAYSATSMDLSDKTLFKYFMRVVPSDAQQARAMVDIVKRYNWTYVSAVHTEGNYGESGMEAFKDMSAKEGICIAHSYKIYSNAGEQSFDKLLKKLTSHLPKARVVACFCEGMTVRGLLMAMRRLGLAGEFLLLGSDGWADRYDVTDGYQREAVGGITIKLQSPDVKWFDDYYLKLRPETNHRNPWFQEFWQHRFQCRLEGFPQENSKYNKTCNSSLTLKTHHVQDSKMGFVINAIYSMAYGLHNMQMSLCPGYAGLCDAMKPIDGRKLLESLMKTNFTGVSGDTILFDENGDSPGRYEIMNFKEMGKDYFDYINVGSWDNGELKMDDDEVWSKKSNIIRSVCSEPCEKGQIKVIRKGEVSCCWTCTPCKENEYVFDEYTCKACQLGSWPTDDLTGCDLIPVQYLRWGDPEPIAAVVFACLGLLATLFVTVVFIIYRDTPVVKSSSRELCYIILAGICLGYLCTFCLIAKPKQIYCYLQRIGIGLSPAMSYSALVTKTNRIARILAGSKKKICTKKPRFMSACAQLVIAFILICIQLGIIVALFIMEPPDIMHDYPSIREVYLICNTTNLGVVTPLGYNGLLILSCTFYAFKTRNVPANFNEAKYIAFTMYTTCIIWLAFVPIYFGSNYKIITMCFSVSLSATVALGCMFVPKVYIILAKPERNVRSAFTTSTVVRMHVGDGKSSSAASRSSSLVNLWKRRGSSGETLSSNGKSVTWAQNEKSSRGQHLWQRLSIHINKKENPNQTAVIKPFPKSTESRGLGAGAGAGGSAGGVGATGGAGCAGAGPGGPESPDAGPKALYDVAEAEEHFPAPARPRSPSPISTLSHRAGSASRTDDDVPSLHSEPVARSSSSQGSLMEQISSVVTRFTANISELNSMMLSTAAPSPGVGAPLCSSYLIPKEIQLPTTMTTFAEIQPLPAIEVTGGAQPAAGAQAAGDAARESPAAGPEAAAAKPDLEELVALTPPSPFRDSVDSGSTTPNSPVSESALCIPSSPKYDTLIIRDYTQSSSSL

Target: human mGluR5a receptor (Homo sapiens, UniProt P41594)
Assay: Cell-based functional Ca2+ mobilization assay (FDSS), potentiation of glutamate EC20 response
[1] = HEK cells transfected with human mGluR5 (H10H or H12H), in presence of EC20 glutamate

Which EC50 [1] does the source give for `COc1ncccc1N1CCn2nc(COc3ccccc3)cc2C1=O` here?
The EC50 was 195 nM.

What about the pEC50 [1] of the same compound?
Its pEC50 is 6.71.

And the “Emax (%)” value (maximum % effect in concentration-response curve, as percent of response to maximally effective glutamate)?
Its value is 68%.
